The source of these data is publication PMC3653798.

The chains behind the UniProt entries cited, without tags or fusion partners. Residues count along the entry.
UniProt P18537, residues 19-581: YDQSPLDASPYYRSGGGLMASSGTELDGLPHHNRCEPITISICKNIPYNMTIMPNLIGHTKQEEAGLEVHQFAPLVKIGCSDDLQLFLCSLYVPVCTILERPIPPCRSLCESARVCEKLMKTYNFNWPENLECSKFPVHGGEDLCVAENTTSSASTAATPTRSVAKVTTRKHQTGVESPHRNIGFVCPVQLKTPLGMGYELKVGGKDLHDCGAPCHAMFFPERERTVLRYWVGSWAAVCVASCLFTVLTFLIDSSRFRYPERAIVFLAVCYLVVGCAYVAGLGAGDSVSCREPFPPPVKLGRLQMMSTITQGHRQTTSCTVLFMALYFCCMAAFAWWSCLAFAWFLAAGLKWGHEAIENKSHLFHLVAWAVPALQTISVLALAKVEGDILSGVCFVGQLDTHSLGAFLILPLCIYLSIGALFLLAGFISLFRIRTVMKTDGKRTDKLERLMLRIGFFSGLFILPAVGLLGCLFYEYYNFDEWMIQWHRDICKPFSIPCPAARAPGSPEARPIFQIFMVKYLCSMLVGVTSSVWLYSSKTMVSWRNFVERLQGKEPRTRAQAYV

The target of experiment [1] is T1, Drosophila APP Like (APPL), FLAG-tagged (Drosophila melanogaster) (UniProt P14599).
T1 sequence: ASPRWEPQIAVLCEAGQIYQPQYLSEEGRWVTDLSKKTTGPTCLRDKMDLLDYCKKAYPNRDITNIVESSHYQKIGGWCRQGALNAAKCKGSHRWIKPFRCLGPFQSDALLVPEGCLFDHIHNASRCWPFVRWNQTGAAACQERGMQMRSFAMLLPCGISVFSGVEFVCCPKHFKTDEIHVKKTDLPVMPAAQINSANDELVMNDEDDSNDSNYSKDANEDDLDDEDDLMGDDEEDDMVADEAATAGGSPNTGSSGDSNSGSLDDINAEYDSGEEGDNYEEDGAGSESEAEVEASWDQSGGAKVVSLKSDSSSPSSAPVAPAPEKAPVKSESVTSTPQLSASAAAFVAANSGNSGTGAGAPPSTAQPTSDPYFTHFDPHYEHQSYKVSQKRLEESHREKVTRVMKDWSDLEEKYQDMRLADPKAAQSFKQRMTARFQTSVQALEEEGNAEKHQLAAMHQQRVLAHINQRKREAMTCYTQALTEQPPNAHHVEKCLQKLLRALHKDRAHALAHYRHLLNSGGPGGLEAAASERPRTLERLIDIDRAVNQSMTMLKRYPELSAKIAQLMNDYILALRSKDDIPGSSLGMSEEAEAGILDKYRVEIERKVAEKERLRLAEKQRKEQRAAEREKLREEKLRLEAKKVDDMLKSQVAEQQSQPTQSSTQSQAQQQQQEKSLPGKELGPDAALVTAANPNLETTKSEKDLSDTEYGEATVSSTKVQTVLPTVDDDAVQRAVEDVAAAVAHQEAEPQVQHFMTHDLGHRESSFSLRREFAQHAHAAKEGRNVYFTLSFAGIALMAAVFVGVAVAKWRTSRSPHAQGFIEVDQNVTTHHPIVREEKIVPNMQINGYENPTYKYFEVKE
Put plainly: co-IP; Drosophila tagged proteins co-expressed in HEK293T cells; lysis in 150 mM NaCl, 50 mM Tris/HCl pH 7.5, 10% glycerol, 0.4% Nonidet P-40; IP with anti-FLAG conjugated to Dynabeads M-270, 1 h at 4°C (reverse IP by the partner's tag); Western blot. A general note: In western blotting, separated proteins are transferred to a membrane and probed.

The target in experiment [2] is Drosophila Frizzled (Fz), GFP-tagged (Drosophila melanogaster) (UniProt P18537). The description is as above.
Experiment [3] has as its target T2, human Van Gogh 2 (Vangl2), HA-tagged (human) (UniProt Q9ULK5).
T2 sequence: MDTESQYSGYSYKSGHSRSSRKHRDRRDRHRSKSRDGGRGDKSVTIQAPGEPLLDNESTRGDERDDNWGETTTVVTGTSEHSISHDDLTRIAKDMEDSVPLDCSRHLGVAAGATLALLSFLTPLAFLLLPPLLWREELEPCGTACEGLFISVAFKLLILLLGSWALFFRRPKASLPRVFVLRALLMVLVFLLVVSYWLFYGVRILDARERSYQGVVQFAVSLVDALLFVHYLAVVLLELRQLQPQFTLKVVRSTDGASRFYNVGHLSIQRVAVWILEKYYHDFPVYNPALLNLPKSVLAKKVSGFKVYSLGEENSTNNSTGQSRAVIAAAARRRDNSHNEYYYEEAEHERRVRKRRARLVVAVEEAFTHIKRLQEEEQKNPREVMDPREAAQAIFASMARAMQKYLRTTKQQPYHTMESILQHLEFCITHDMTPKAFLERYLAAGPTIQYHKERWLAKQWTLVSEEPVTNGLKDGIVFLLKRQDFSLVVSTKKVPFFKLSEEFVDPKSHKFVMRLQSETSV
Put plainly: co-IP; Drosophila and human (or human and human) tagged proteins co-expressed in HEK293 cells; lysis in Tris pH 7.4, 150 mM NaCl, 1 mM EDTA, 0.5% NP40, 1 mM DTT; 1 µg immunoprecipitating antibody 1 h at 4°C, Protein G sepharose overnight; Western blot.

Experiment [4] addresses T2, human Van Gogh 2 (Vangl2), HA-tagged (human). Put plainly: condition: only proteins expressed separately in different cells and pooled during the Co-IP procedure; co-IP; control: Appl-FLAG and Vangl2-HA expressed separately in different cells in two dishes and pooled during the Co-IP procedure; IP with anti-FLAG and anti-HA; Western blot.

No constants are given. Whether binding was seen depends on the method and setting. Binding seen in cells or lysates may run through a third protein. Some binding calls cover weakened binding; strength is not graded here. Where a sequence is shown, tags or fusion partners need not be part of it.

As for “Drosophila Frizzled (Fz), GFP-tagged (from UniProt P18537 19-581) (receptor)”, the binding entry in experiment [1] is “binds”.

B1: Drosophila APP Like (APPL), FLAG-tagged (protein, UniProt P14599 28-887)
chain: ASPRWEPQIAVLCEAGQIYQPQYLSEEGRWVTDLSKKTTGPTCLRDKMDLLDYCKKAYPNRDITNIVESSHYQKIGGWCRQGALNAAKCKGSHRWIKPFRCLGPFQSDALLVPEGCLFDHIHNASRCWPFVRWNQTGAAACQERGMQMRSFAMLLPCGISVFSGVEFVCCPKHFKTDEIHVKKTDLPVMPAAQINSANDELVMNDEDDSNDSNYSKDANEDDLDDEDDLMGDDEEDDMVADEAATAGGSPNTGSSGDSNSGSLDDINAEYDSGEEGDNYEEDGAGSESEAEVEASWDQSGGAKVVSLKSDSSSPSSAPVAPAPEKAPVKSESVTSTPQLSASAAAFVAANSGNSGTGAGAPPSTAQPTSDPYFTHFDPHYEHQSYKVSQKRLEESHREKVTRVMKDWSDLEEKYQDMRLADPKAAQSFKQRMTARFQTSVQALEEEGNAEKHQLAAMHQQRVLAHINQRKREAMTCYTQALTEQPPNAHHVEKCLQKLLRALHKDRAHALAHYRHLLNSGGPGGLEAAASERPRTLERLIDIDRAVNQSMTMLKRYPELSAKIAQLMNDYILALRSKDDIPGSSLGMSEEAEAGILDKYRVEIERKVAEKERLRLAEKQRKEQRAAEREKLREEKLRLEAKKVDDMLKSQVAEQQSQPTQSSTQSQAQQQQQEKSLPGKELGPDAALVTAANPNLETTKSEKDLSDTEYGEATVSSTKVQTVLPTVDDDAVQRAVEDVAAAVAHQEAEPQVQHFMTHDLGHRESSFSLRREFAQHAHAAKEGRNVYFTLSFAGIALMAAVFVGVAVAKWRTSRSPHAQGFIEVDQNVTTHHPIVREEKIVPNMQINGYENPTYKYFEVKE
For the molecule B1, the values for the binding entry in experiment [2], in experiment [3] and in experiment [4] were “binds”, “binds” and “no binding”, respectively.
